PubChem BioAssay AID1259308 – NCATS | 2017
Purpose: 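Knock-downs that increase output of a recombinant reporter protein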 (primary screen). System: human HEK293 embryonic kidney cells stably expressing firefly luciferase (HEK-CMV-Luc2-Hygro). Knock-down reagent: single siRNA against human genes, 0.8 pmol siRNA per well. Timing: 72 h. Read-out: 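Reporter luminescence and viable-cell signal on separate replicate plates, given as percent of non-targeting control and median/MAD z-scores, plus per-cell luciferase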. Scale: total luciferase, z-score and total luciferase, % of control: higher = more reporter protein produced; luciferase per cell, z-score: higher = more reporter output per viable cell. Call rule: 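Active when the median/MAD z-score for overall luciferase is greater than 3; a gene was taken forward for validation with new siRNAs if at least two of its three siRNAs passed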. Calls: active = raised luciferase; inactive = no rise.
Shown is an unselected part of about 59,000 reagents. Of all reagents, about 1,510 (2.6%) got an active call. 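Calls use total luciferase alone and ignore viability, so some active siRNAs may act by altering cell number.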 Not all columns of the deposit are shown.

gene,PubChem SID,"total luciferase, z-score","total luciferase, % of control","luciferase per cell, z-score",Call
CMTM3,SID160756126,0.578,93.4,0.389,inactive
CMTM3,SID160756127,0.671,95.2,1.52,inactive
CMTM3,SID160756128,0.594,93.7,0.26,inactive
ENTREP2,SID160732758,-0.976,62.5,-0.682,inactive
ENTREP2,SID160736100,1.21,106,1.4,inactive
ENTREP2,SID160736101,0.0112,82.1,0.0258,inactive
SOHLH1,SID160767443,1.22,106,2.8,inactive
SOHLH1,SID160767444,-0.507,71.8,-0.749,inactive
SOHLH1,SID160767445,-0.387,74.2,-0.955,inactive
MED17,SID160722209,-1.59,50.3,-0.574,inactive
MED17,SID160722210,-1.34,55.2,-1.08,inactive
MED17,SID160722211,-2.41,33.9,-1.9,inactive

Continued; the last 3 above are carried over.
gene,PubChem SID,"total luciferase, z-score","total luciferase, % of control","luciferase per cell, z-score",Call
MED17,SID160722209,-1.59,50.3,-0.574,inactive
MED17,SID160722210,-1.34,55.2,-1.08,inactive
MED17,SID160722211,-2.41,33.9,-1.9,inactive
KHDRBS2,SID160730759,4.04,162,2.99,active
KHDRBS2,SID160761076,-1.43,53.4,-1.52,inactive
KHDRBS2,SID160761077,1.82,118,1.97,inactive
NPHP4,SID160762663,0.873,99.2,0.939,inactive
NPHP4,SID160762664,-1.31,55.9,-0.698,inactive
NPHP4,SID160762665,0.567,93.2,0.117,inactive
GZMK,SID160774783,0.478,91.4,-0.0421,inactive
GZMK,SID160774784,4.3,167,3.69,active
GZMK,SID160774785,1.85,119,1.67,inactive
MISP3,SID160732336,3.68,155,2.44,active
MISP3,SID160754812,0.0774,83.4,0.182,inactive
MISP3,SID160754813,0.278,87.4,0.203,inactive
